{"source": "PubChem BioAssay AID504808, Drosophila RNAi Screening Center | 2011", "test": "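Chromatin factors that keep E2F targets switched off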 (primary screen)", "cell system": "Drosophila S2 cells", "knock-down reagent": "long dsRNA against Drosophila genes", "read-out": "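Firefly luciferase driven by E2F sites, normalised to Renilla luciferase on the same minimal promoter, measured by plate reader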", "reading the numbers": "E2F firefly: higher = more E2F reporter activity; Renilla normaliser: higher = more normaliser reporter signal", "hit rule": "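Called active if the normalised E2F reporter went up by over 50%; the cutoff is arbitrary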", "note": "In all, the deposit lists about 21,000 reagents; below is an unselected part of those with a known target gene and a result. In the full data, 18 (0.084%) are marked active. 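Raw counts without plate normalisation, one of two replicates; the ratio scores behind the calls were not deposited.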 A number with no mark means an inactive call. Not given: the amount of reagent, the time to read-out."}
{"gene knocked down": "ScsbetaA", "amplicon": "DRSC14446", "E2F firefly, rep 1": 77712, "Renilla normaliser, rep 1": 3241}
{"gene knocked down": "CG4988", "amplicon": "DRSC02800", "E2F firefly, rep 1": 1.51e5, "Renilla normaliser, rep 1": 5182}
{"gene knocked down": "Rtel1", "amplicon": "DRSC18343", "E2F firefly, rep 1": 56007, "Renilla normaliser, rep 1": 3857}
{"gene knocked down": "CG3649", "amplicon": "DRSC04400", "E2F firefly, rep 1": 93835, "Renilla normaliser, rep 1": 3842}
{"gene knocked down": "CG4286", "amplicon": "DRSC04459", "E2F firefly, rep 1": 99981, "Renilla normaliser, rep 1": 4665}
{"gene knocked down": "HDAC1", "amplicon": "DRSC08696", "E2F firefly, rep 1": 53351, "Renilla normaliser, rep 1": 3158}
{"gene knocked down": "CG5783", "amplicon": "DRSC02894", "E2F firefly, rep 1": 1.02e5, "Renilla normaliser, rep 1": 4561}
{"gene knocked down": "CG14540", "amplicon": "DRSC14884", "E2F firefly, rep 1": 98380, "Renilla normaliser, rep 1": 6647}
{"gene knocked down": "Cyp1", "amplicon": "DRSC20234", "E2F firefly, rep 1": 10515, "Renilla normaliser, rep 1": 812}
{"gene knocked down": "Mgat4b", "amplicon": "DRSC10256", "E2F firefly, rep 1": 1.42e5, "Renilla normaliser, rep 1": 6557}
{"gene knocked down": "HP1c", "amplicon": "DRSC16166", "E2F firefly, rep 1": 78187, "Renilla normaliser, rep 1": 3463}
{"gene knocked down": "CG32026", "amplicon": "DRSC08950", "E2F firefly, rep 1": 1.30e5, "Renilla normaliser, rep 1": 4528}
